Source: patent US20060156431A1, “L-gulose dependent vitamin C synthesis” (Vlaams Interuniversitair Instituut Voor Biotechnologie VZW, priority 2003, published 2006)
Results are given in words; binding and its absence hold for the method and conditions named. Binding seen in cells or lysates may run through a third protein. Some binding calls cover weakened binding; strength is not graded here. Tags and fused reporters may be left off the sequences shown.

Chains of the proteins cited; added tags and fusions are not shown. Residues count along the entry.
UniProt P0A6Y8, residues 2-638: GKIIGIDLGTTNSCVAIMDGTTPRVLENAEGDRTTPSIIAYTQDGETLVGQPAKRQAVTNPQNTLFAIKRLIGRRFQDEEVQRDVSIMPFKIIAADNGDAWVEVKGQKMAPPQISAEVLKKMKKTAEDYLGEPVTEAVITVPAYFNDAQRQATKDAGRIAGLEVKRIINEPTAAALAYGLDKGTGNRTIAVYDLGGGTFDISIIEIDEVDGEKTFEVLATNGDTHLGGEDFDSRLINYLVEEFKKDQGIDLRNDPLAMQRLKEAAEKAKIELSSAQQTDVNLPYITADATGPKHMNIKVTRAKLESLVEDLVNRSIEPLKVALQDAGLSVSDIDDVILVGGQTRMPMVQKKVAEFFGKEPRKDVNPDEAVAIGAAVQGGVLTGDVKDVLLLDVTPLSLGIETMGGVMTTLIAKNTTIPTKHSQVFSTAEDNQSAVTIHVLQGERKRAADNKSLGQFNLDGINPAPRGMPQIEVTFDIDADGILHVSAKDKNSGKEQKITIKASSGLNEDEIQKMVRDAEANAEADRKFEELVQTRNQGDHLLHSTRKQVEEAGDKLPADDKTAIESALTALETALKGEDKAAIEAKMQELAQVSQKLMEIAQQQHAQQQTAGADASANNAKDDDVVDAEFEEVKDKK

Legend:
[1] = biological target: T1, recombinant His-tagged GDP-Man 3″,5″-epimerase of A. thaliana (A. thaliana) (UniProt Q93VR3); assay: co-purification
T1 sequence: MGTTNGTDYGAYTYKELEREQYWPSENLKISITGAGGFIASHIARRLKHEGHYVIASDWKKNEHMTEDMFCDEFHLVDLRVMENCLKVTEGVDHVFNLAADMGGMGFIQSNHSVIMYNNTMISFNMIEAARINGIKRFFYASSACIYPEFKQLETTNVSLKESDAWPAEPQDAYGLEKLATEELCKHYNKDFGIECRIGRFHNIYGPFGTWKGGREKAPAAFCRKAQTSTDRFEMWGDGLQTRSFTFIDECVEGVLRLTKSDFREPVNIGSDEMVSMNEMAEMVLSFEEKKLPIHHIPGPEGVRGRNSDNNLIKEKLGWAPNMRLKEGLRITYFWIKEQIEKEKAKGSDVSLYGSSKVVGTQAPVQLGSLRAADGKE

[2] = biological target: T1, recombinant His-tagged GDP-Man 3″,5″-epimerase of A. thaliana (A. thaliana); assay: co-purification on affinity column (Ni-NTA), SDS-PAGE and MS identification of bands

DnaK, a Hsp70 chaperone of E. coli (from UniProt P0A6Y8 2-638)
binding [1]: binds
binding [2]: binds
